# Reference: the supplement of paper PMC8728848
# This is one part of the list.
# Key:
# Assay in all cases: glycan array binding signal (z-score within array); higher = stronger binding
# Details in all cases: glycan notation: IUPAC condensed, linker removed
# [1] = target: Gal(a1-3)Gal(b1-4)GlcNAc(b1-2)Man
# Outline: (§1)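 Negative Z-scores can be read as non-binding. The Z-score is calculated within each array and then averaged across arrays of one protein sequence at different concentrations or buffers and across linkers. Arrays, 3228 in all, were curated from the Consortium for Functional Glycomics database and kept only where the protein sequence was available.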
# [2] = target: Gal(a1-3)Gal(b1-4)GlcNAc(b1-2)Man(a1-3)[Gal(a1-3)Gal(b1-4)GlcNAc(b1-2)Man(a1-6)]Man(b1-4)GlcNAc(b1-4)GlcNAc
# Outline: as §1
# [3] = target: Gal(a1-3)Gal(b1-4)GlcNAc(b1-3)GalNAc
# Outline: as §1
# [4] = target: Gal(a1-3)Gal(b1-4)GlcNAc(b1-6)GalNAc
# Outline: as §1
# [5] = target: Gal(a1-3)Gal(b1-4)[Fuc(a1-3)]GlcNAc
# Outline: as §1
# [6] = target: Gal(a1-3)Gal(b1-4)[Fuc(a1-3)]GlcNAc(b1-2)Man(a1-3)[Gal(a1-3)Gal(b1-4)[Fuc(a1-3)]GlcNAc(b1-2)Man(a1-6)]Man(b1-4)GlcNAc(b1-4)GlcNAc
# Outline: as §1
# [7] = target: Gal(a1-3)GalNAc
# Outline: as §1
# [8] = target: Gal(a1-3)[Gal(a1-4)]Gal(b1-4)GlcNAc
# Outline: as §1
# [9] = target: Gal(a1-4)Gal(b1-3)GlcNAc(b1-2)Man(a1-3)[Gal(a1-4)Gal(b1-3)GlcNAc(b1-2)Man(a1-6)]Man(b1-4)GlcNAc(b1-4)GlcNAc
# Outline: as §1
# [10] = target: Gal(a1-4)Gal(b1-4)Glc
# Outline: as §1
# [11] = target: Gal(a1-4)Gal(b1-4)GlcNAc
# Outline: as §1
# [12] = target: Gal(a1-4)Gal(b1-4)GlcNAc(b1-2)Man(a1-3)[Gal(a1-4)Gal(b1-4)GlcNAc(b1-2)Man(a1-6)]Man(b1-4)GlcNAc(b1-4)GlcNAc
# Outline: as §1
# [13] = target: Gal(a1-4)Gal(b1-4)GlcNAc(b1-3)Gal(b1-4)Glc
# Outline: as §1
# [14] = target: Gal(a1-4)GlcNAc
# Outline: as §1
# [15] = target: Gal(a1-6)Glc
# Outline: as §1
# [16] = target: Gal(b1-2)Gal
# Outline: as §1
# [17] = target: Gal(b1-3)Gal
# Outline: as §1
# [18] = target: Gal(b1-3)Gal(b1-4)GlcNAc
# Outline: as §1
# [19] = target: Gal(b1-3)GalNAc
# Outline: as §1
# [20] = target: Gal(b1-3)GalNAc(a1-3)[Fuc(a1-2)]Gal(b1-4)Glc
# Outline: as §1
# [21] = target: Gal(b1-3)GalNAc(a1-3)[Fuc(a1-2)]Gal(b1-4)GlcNAc
# Outline: as §1
# [22] = target: Gal(b1-3)GalNAc(b1-3)Gal
# Outline: as §1
# [23] = target: Gal(b1-3)GalNAc(b1-3)Gal(a1-4)Gal(b1-4)Glc
# Outline: as §1
# [24] = target: Gal(b1-3)GalNAc(b1-4)Gal(b1-4)Glc
# Outline: as §1
# [25] = target: Gal(b1-3)GalNAc(b1-4)[Neu5Ac(a2-3)]Gal(b1-4)Glc
# Outline: as §1
# [26] = target: Gal(b1-3)GlcNAc
# Outline: as §1
# [27] = target: Gal(b1-3)GlcNAc(a1-3)Gal(b1-4)GlcNAc
# Outline: as §1
# [28] = target: Gal(b1-3)GlcNAc(a1-6)Gal(b1-4)GlcNAc
# Outline: as §1
# [29] = target: Gal(b1-3)GlcNAc(b1-2)Man
# Outline: as §1
# [30] = target: Gal(b1-3)GlcNAc(b1-2)Man(a1-3)[Gal(b1-3)GlcNAc(b1-2)Man(a1-6)]Man(b1-4)GlcNAc(b1-4)GlcNAc
# Outline: as §1
# [31] = target: Gal(b1-3)GlcNAc(b1-2)Man(a1-3)[Gal(b1-3)GlcNAc(b1-2)Man(a1-6)]Man(b1-4)GlcNAc(b1-4)[Fuc(a1-6)]GlcNAc
# Outline: as §1
# [32] = target: Gal(b1-3)GlcNAc(b1-2)Man(a1-3)[GlcNAc(b1-4)][Gal(b1-3)GlcNAc(b1-2)Man(a1-6)]Man(b1-4)GlcNAc(b1-4)GlcNAc
# Outline: as §1
# [33] = target: Gal(b1-3)GlcNAc(b1-2)[Gal(b1-3)GlcNAc(b1-6)]Man(a1-6)[Gal(b1-3)GlcNAc(b1-2)Man(a1-3)]Man(b1-4)GlcNAc(b1-4)GlcNAc
# Outline: as §1
# [34] = target: Gal(b1-3)GlcNAc(b1-3)Gal(b1-3)GlcNAc
# Outline: as §1
# [35] = target: Gal(b1-3)GlcNAc(b1-3)Gal(b1-4)Glc
# Outline: as §1
# [36] = target: Gal(b1-3)GlcNAc(b1-3)Gal(b1-4)GlcNAc
# Outline: as §1
# [37] = target: Gal(b1-3)GlcNAc(b1-3)Gal(b1-4)GlcNAc(b1-2)Man(a1-3)[Gal(b1-3)GlcNAc(b1-3)Gal(b1-4)GlcNAc(b1-2)Man(a1-6)]Man(b1-4)GlcNAc(b1-4)GlcNAc
# Outline: as §1
binder,measurement,setting,value
FimA (Actinomyces oris) (protein) MHHHHHHSSGVDLGTENLYFQSNAETPNYGNIKTDATGSLVIHKHLTGGGKDIGTPTGTAQNADDKGPAVEGVVFTAYPITDINLKDPAGWDTISNLSRTGVPDSACANPAAPTLGAHQFGTPKVSPATTKEGLATITEMPVQAYLVCETTTPGDIVQKAKPFVVTIPHPNTAAGADGQWIYDVNVYPKNEAIDVDKTIQAQKLNGYGVGSLIKFPVESTAPTLDAKSFYKYFQLKDTLDERLSEVTATDVSLEGTPLQPTDYKVETKQQTVTVTFTAEGLKKIKAAPGKKVSAVFQGKVTKAGNGAITNRAQVISDTLYAEQPPTPETPPTDPENPPTSDEVISRWGDLSIKKVDTHQQGQTKAGLQGAQFQLYKAKNAYANTCSNEKEGAPIAINGQTTLTTDAQGAIDIKGLFISDSIDGADRDNQVNAMERCYVLVETKAPAGYVLPAGNGAATPVKVKAGEETTDNVTVENTKQSVPGLPLTG,glycan array binding signal (z-score),[1],-0.077
same,glycan array binding signal (z-score),[2],0.219
same,glycan array binding signal (z-score),[3],-0.405
same,glycan array binding signal (z-score),[4],-0.507
same,glycan array binding signal (z-score),[5],-0.304
same,glycan array binding signal (z-score),[6],-0.26
same,glycan array binding signal (z-score),[7],-0.559
same,glycan array binding signal (z-score),[8],0.017
same,glycan array binding signal (z-score),[9],-0.768
same,glycan array binding signal (z-score),[10],-0.063
same,glycan array binding signal (z-score),[11],0.225
same,glycan array binding signal (z-score),[12],-0.497
same,glycan array binding signal (z-score),[13],-0.959
same,glycan array binding signal (z-score),[14],-0.325
same,glycan array binding signal (z-score),[15],-0.367
same,glycan array binding signal (z-score),[16],-0.929
same,glycan array binding signal (z-score),[17],-0.761
same,glycan array binding signal (z-score),[18],-0.88
same,glycan array binding signal (z-score),[19],0.278
same,glycan array binding signal (z-score),[20],-0.577
same,glycan array binding signal (z-score),[21],-0.471
same,glycan array binding signal (z-score),[22],-0.441
same,glycan array binding signal (z-score),[23],-0.071
same,glycan array binding signal (z-score),[24],3.27
same,glycan array binding signal (z-score),[25],-0.784
same,glycan array binding signal (z-score),[26],-0.591
same,glycan array binding signal (z-score),[27],0.153
same,glycan array binding signal (z-score),[28],-0.165
same,glycan array binding signal (z-score),[29],-0.224
same,glycan array binding signal (z-score),[30],-0.222
same,glycan array binding signal (z-score),[31],0.3
same,glycan array binding signal (z-score),[32],0.185
same,glycan array binding signal (z-score),[33],0.033
same,glycan array binding signal (z-score),[34],-0.948
same,glycan array binding signal (z-score),[35],-0.983
same,glycan array binding signal (z-score),[36],-0.749
same,glycan array binding signal (z-score),[37],-0.744

# Reprinted at random: three entries already listed
binder,measurement,setting,value
FimA (Actinomyces oris) (protein) MHHHHHHSSGVDLGTENLYFQSNAETPNYGNIKTDATGSLVIHKHLTGGGKDIGTPTGTAQNADDKGPAVEGVVFTAYPITDINLKDPAGWDTISNLSRTGVPDSACANPAAPTLGAHQFGTPKVSPATTKEGLATITEMPVQAYLVCETTTPGDIVQKAKPFVVTIPHPNTAAGADGQWIYDVNVYPKNEAIDVDKTIQAQKLNGYGVGSLIKFPVESTAPTLDAKSFYKYFQLKDTLDERLSEVTATDVSLEGTPLQPTDYKVETKQQTVTVTFTAEGLKKIKAAPGKKVSAVFQGKVTKAGNGAITNRAQVISDTLYAEQPPTPETPPTDPENPPTSDEVISRWGDLSIKKVDTHQQGQTKAGLQGAQFQLYKAKNAYANTCSNEKEGAPIAINGQTTLTTDAQGAIDIKGLFISDSIDGADRDNQVNAMERCYVLVETKAPAGYVLPAGNGAATPVKVKAGEETTDNVTVENTKQSVPGLPLTG,glycan array binding signal (z-score),[16],-0.929
same,glycan array binding signal (z-score),[6],-0.26
same,glycan array binding signal (z-score),[26],-0.591
